# This is one part of the list.
# B1: CcfD (Bacteroides vulgatus), A6KYX8 (protein)
# chain: MKYKNYFKSIIYLALGAFTLGSCEDFLDRQEDEKLTFDKIWESRNTTQQYWLNAMSFLPNENGSLQGDTEPYLGASDECTIAYDRQYRWINFGTWNPSQVPYYKMDHYYKGIRECNIFLQNVYKCSDPLVTKDQLDEWYWQTRFARAYYYFLMMRDYGPVFLLGDDLLDFTASTEELYRPRNTWDQCVNYVVSEMTQCAESGVVLQQSDLPAAKWGLATVGTCHAVISRLLLYSARPLFNGNKLYSTVKNPDAPDFPELSGVKLFPELDNTKWQKAAEAAKKLIDNPCYELYRAGNDNPYEDYYGVTHETWNKELIWTDRYNGLFSWGVGTVPTGVAGTAYGAVGPTQALVDAYAMNTGWYPITGYEADGTPIVEPLSGYELASELEKSSWIYPSGGWSNKADFEIEAPNMYKDREPRFYVTVFFGGNQWLHGNSATSISFAKGGNGNKSHDYPKSGYLCNRFYDHKLNSSEGQWGNITFPVFRLGEIYLNFIEAVLECKKNGVALDPSYEALAMEKWADLRKRAGLDPITSIYGQVSTEELIQLCRKERQIELAFERHRYFDTRTWMIATQTDNGKMYGMNTSCPLDAGMKGTETPDGFWERTAFETRVFQNKHYLYPFSQRELDRNKLLTQNYGW
# What was measured:
# Assay in all cases: glycan array binding signal (z-score within array); higher = stronger binding
# Details in all cases: glycan notation: IUPAC condensed, linker removed
# [1] = target: Gal(b1-4)GlcNAc(b1-3)Gal(b1-4)GlcNAc(b1-2)Man(a1-3)[Gal(b1-4)GlcNAc(b1-3)Gal(b1-4)GlcNAc(b1-2)Man(a1-6)]Man(b1-4)GlcNAc(b1-4)[Fuc(a1-6)]GlcNAc
# Method in brief: (§1)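 Columns mapping to the same glycan were averaged after glycan names were converted to IUPAC-condensed notation. The data come from 3228 arrays in the Consortium for Functional Glycomics database, limited to those with an available protein sequence. Binding is reported as a within-array Z-score averaged across arrays of one protein sequence and across linkers.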
# [2] = target: Gal(b1-4)GlcNAc(b1-3)Gal(b1-4)GlcNAc(b1-2)[Gal(b1-4)GlcNAc(b1-3)Gal(b1-4)GlcNAc(b1-6)]Man(a1-6)[Gal(b1-4)GlcNAc(b1-3)Gal(b1-4)GlcNAc(b1-2)Man(a1-3)]Man(b1-4)GlcNAc(b1-4)GlcNAc
# Method in brief: as §1
# [3] = target: Gal(b1-4)GlcNAc(b1-3)Gal(b1-4)GlcNAc(b1-2)[Gal(b1-4)GlcNAc(b1-3)Gal(b1-4)GlcNAc(b1-6)]Man(a1-6)[Gal(b1-4)GlcNAc(b1-3)Gal(b1-4)GlcNAc(b1-2)Man(a1-3)]Man(b1-4)GlcNAc(b1-4)[Fuc(a1-6)]GlcNAc
# Method in brief: as §1
# [4] = target: Gal(b1-4)GlcNAc(b1-3)Gal(b1-4)GlcNAc(b1-3)Gal(b1-4)GlcNAc
# Method in brief: as §1
# [5] = target: Gal(b1-4)GlcNAc(b1-3)Gal(b1-4)GlcNAc(b1-3)Gal(b1-4)GlcNAc(b1-2)Man(a1-3)[Gal(b1-4)GlcNAc(b1-3)Gal(b1-4)GlcNAc(b1-3)Gal(b1-4)GlcNAc(b1-2)Man(a1-6)]Man(b1-4)GlcNAc(b1-4)GlcNAc
# Method in brief: as §1
# [6] = target: Gal(b1-4)GlcNAc(b1-3)Gal(b1-4)GlcNAc(b1-3)Gal(b1-4)GlcNAc(b1-2)Man(a1-3)[Gal(b1-4)GlcNAc(b1-3)Gal(b1-4)GlcNAc(b1-3)Gal(b1-4)GlcNAc(b1-2)Man(a1-6)]Man(b1-4)GlcNAc(b1-4)[Fuc(a1-6)]GlcNAc
# Method in brief: as §1
# [7] = target: Gal(b1-4)GlcNAc(b1-3)Gal(b1-4)GlcNAc(b1-3)Gal(b1-4)GlcNAc(b1-2)[Gal(b1-4)GlcNAc(b1-3)Gal(b1-4)GlcNAc(b1-3)Gal(b1-4)GlcNAc(b1-6)]Man(a1-6)[Gal(b1-4)GlcNAc(b1-3)Gal(b1-4)GlcNAc(b1-3)Gal(b1-4)GlcNAc(b1-2)Man(a1-3)]Man(b1-4)GlcNAc(b1-4)[Fuc(a1-6)]GlcNAc
# Method in brief: as §1
# [8] = target: Gal(b1-4)GlcNAc(b1-3)Gal(b1-4)GlcNAc(b1-3)Gal(b1-4)GlcNAc(b1-3)Gal(b1-4)GlcNAc(b1-2)Man(a1-3)[Gal(b1-4)GlcNAc(b1-3)Gal(b1-4)GlcNAc(b1-3)Gal(b1-4)GlcNAc(b1-3)Gal(b1-4)GlcNAc(b1-2)Man(a1-6)]Man(b1-4)GlcNAc(b1-4)GlcNAc
# Method in brief: as §1
# [9] = target: Gal(b1-4)GlcNAc(b1-3)Gal(b1-4)GlcNAc(b1-3)Gal(b1-4)GlcNAc(b1-3)Gal(b1-4)GlcNAc(b1-2)Man(a1-3)[Gal(b1-4)GlcNAc(b1-3)Gal(b1-4)GlcNAc(b1-3)Gal(b1-4)GlcNAc(b1-3)Gal(b1-4)GlcNAc(b1-2)Man(a1-6)]Man(b1-4)GlcNAc(b1-4)[Fuc(a1-6)]GlcNAc
# Method in brief: as §1
# [10] = target: Gal(b1-4)GlcNAc(b1-3)Gal(b1-4)GlcNAc(b1-3)Gal(b1-4)GlcNAc(b1-3)Gal(b1-4)GlcNAc(b1-2)[Gal(b1-4)GlcNAc(b1-3)Gal(b1-4)GlcNAc(b1-3)Gal(b1-4)GlcNAc(b1-3)Gal(b1-4)GlcNAc(b1-6)]Man(a1-6)[Gal(b1-4)GlcNAc(b1-3)Gal(b1-4)GlcNAc(b1-3)Gal(b1-4)GlcNAc(b1-3)Gal(b1-4)GlcNAc(b1-2)Man(a1-3)]Man(b1-4)GlcNAc(b1-4)[Fuc(a1-6)]GlcNAc
# Method in brief: as §1
# [11] = target: Gal(b1-4)GlcNAc(b1-3)Gal(b1-4)GlcNAc(b1-3)Gal(b1-4)GlcNAc(b1-3)Gal(b1-4)GlcNAc(b1-3)Gal(b1-4)GlcNAc(b1-2)Man(a1-3)[Gal(b1-4)GlcNAc(b1-3)Gal(b1-4)GlcNAc(b1-3)Gal(b1-4)GlcNAc(b1-3)Gal(b1-4)GlcNAc(b1-3)Gal(b1-4)GlcNAc(b1-2)Man(a1-6)]Man(b1-4)GlcNAc(b1-4)GlcNAc
# Method in brief: as §1
# [12] = target: Gal(b1-4)GlcNAc(b1-3)Gal(b1-4)GlcNAc(b1-3)Gal(b1-4)GlcNAc(b1-3)Gal(b1-4)GlcNAc(b1-3)Gal(b1-4)GlcNAc(b1-2)Man(a1-3)[Gal(b1-4)GlcNAc(b1-3)Gal(b1-4)GlcNAc(b1-3)Gal(b1-4)GlcNAc(b1-3)Gal(b1-4)GlcNAc(b1-3)Gal(b1-4)GlcNAc(b1-2)Man(a1-6)]Man(b1-4)GlcNAc(b1-4)[Fuc(a1-6)]GlcNAc
# Method in brief: as §1
# [13] = target: Gal(b1-4)GlcNAc(b1-3)Gal(b1-4)GlcNAc(b1-3)Gal(b1-4)GlcNAc(b1-3)Gal(b1-4)GlcNAc(b1-3)Gal(b1-4)GlcNAc(b1-2)[Gal(b1-4)GlcNAc(b1-3)Gal(b1-4)GlcNAc(b1-3)Gal(b1-4)GlcNAc(b1-3)Gal(b1-4)GlcNAc(b1-3)Gal(b1-4)GlcNAc(b1-6)]Man(a1-6)[Gal(b1-4)GlcNAc(b1-3)Gal(b1-4)GlcNAc(b1-3)Gal(b1-4)GlcNAc(b1-3)Gal(b1-4)GlcNAc(b1-3)Gal(b1-4)GlcNAc(b1-2)Man(a1-3)]Man(b1-4)GlcNAc(b1-4)[Fuc(a1-6)]GlcNAc
# Method in brief: as §1
# [14] = target: Gal(b1-4)GlcNAc(b1-3)Gal(b1-4)GlcNAc(b1-3)Gal(b1-4)GlcNAc(b1-3)Gal(b1-4)GlcNAc(b1-3)Gal(b1-4)GlcNAc(b1-3)Gal(b1-4)GlcNAc(b1-2)Man(a1-3)[Gal(b1-4)GlcNAc(b1-3)Gal(b1-4)GlcNAc(b1-3)Gal(b1-4)GlcNAc(b1-3)Gal(b1-4)GlcNAc(b1-3)Gal(b1-4)GlcNAc(b1-3)Gal(b1-4)GlcNAc(b1-2)Man(a1-6)]Man(b1-4)GlcNAc(b1-4)GlcNAc
# Method in brief: as §1
# [15] = target: Gal(b1-4)GlcNAc(b1-3)Gal(b1-4)GlcNAc(b1-3)GalNAc
# Method in brief: as §1
# [16] = target: Gal(b1-4)GlcNAc(b1-3)Gal(b1-4)GlcNAc(b1-3)[Gal(b1-4)GlcNAc(b1-3)Gal(b1-4)GlcNAc(b1-6)]GalNAc
# Method in brief: as §1
# [17] = target: Gal(b1-4)GlcNAc(b1-3)Gal(b1-4)GlcNAc(b1-6)[Gal(b1-3)]GalNAc
# Method in brief: as §1
# [18] = target: Gal(b1-4)GlcNAc(b1-3)Gal(b1-4)[Fuc(a1-3)]GlcNAc(b1-3)Gal(b1-4)[Fuc(a1-3)]GlcNAc
# Method in brief: as §1
# [19] = target: Gal(b1-4)GlcNAc(b1-3)GalNAc
# Method in brief: as §1
# [20] = target: Gal(b1-4)GlcNAc(b1-3)[Fuc(a1-3)GlcNAc(b1-6)]Gal(b1-4)Glc
# Method in brief: as §1
# [21] = target: Gal(b1-4)GlcNAc(b1-3)[Gal(b1-4)GlcNAc(b1-6)]Gal(b1-4)GlcNAc
# Method in brief: as §1
# [22] = target: Gal(b1-4)GlcNAc(b1-3)[GlcNAc(b1-6)]Gal(b1-4)GlcNAc
# Method in brief: as §1
# [23] = target: Gal(b1-4)GlcNAc(b1-6)Gal(b1-4)GlcNAc
# Method in brief: as §1
# [24] = target: Gal(b1-4)GlcNAc(b1-6)GalNAc
# Method in brief: as §1
# [25] = target: Gal(b1-4)GlcNAc(b1-6)[Gal(b1-3)]GalNAc
# Method in brief: as §1
# [26] = target: Gal(b1-4)GlcNAc(b1-6)[Gal(b1-4)GlcNAc(b1-3)]GalNAc
# Method in brief: as §1
# [27] = target: Gal(b1-4)GlcNAc6P
# Method in brief: as §1
# [28] = target: Gal(b1-6)Gal
# Method in brief: as §1
# [29] = target: Gal3S(b1-3)GalNAc
# Method in brief: as §1
# [30] = target: Gal3S(b1-3)GlcNAc
# Method in brief: as §1
binder,measurement,setting,value
B1,glycan array binding signal (z-score),[1],0.414
same,glycan array binding signal (z-score),[2],0.826
same,glycan array binding signal (z-score),[3],1.07
same,glycan array binding signal (z-score),[4],-1.02
same,glycan array binding signal (z-score),[5],0.6
same,glycan array binding signal (z-score),[6],0.587
same,glycan array binding signal (z-score),[7],0.704
same,glycan array binding signal (z-score),[8],-0.363
same,glycan array binding signal (z-score),[9],0.003
same,glycan array binding signal (z-score),[10],-0.388
same,glycan array binding signal (z-score),[11],-0.647
same,glycan array binding signal (z-score),[12],0.287
same,glycan array binding signal (z-score),[13],0.262
same,glycan array binding signal (z-score),[14],-0.962
same,glycan array binding signal (z-score),[15],-0.256
same,glycan array binding signal (z-score),[16],-0.978
same,glycan array binding signal (z-score),[17],-0.226
same,glycan array binding signal (z-score),[18],-0.404
same,glycan array binding signal (z-score),[19],-0.101
same,glycan array binding signal (z-score),[20],0.186
same,glycan array binding signal (z-score),[21],-1.48
same,glycan array binding signal (z-score),[22],-0.891
same,glycan array binding signal (z-score),[23],-0.515
same,glycan array binding signal (z-score),[24],-0.62
same,glycan array binding signal (z-score),[25],-0.208
same,glycan array binding signal (z-score),[26],-0.503
same,glycan array binding signal (z-score),[27],-0.586
same,glycan array binding signal (z-score),[28],-1
same,glycan array binding signal (z-score),[29],0.613
same,glycan array binding signal (z-score),[30],-0.233

# An excerpt of these results, with tabs:
binder	measurement	setting	value
B1	glycan array binding signal (z-score)	[8]	-0.363
same	glycan array binding signal (z-score)	[25]	-0.208

# Source: the supplement of paper PMC8728848
